Test results from paper PMC8257253.

Chains of the proteins cited; added tags and fusions are not shown. Lines headed by an entry give the natural chain unless they say otherwise; changes in a name come on top. Residues count along the entry.
UniProt Q02357: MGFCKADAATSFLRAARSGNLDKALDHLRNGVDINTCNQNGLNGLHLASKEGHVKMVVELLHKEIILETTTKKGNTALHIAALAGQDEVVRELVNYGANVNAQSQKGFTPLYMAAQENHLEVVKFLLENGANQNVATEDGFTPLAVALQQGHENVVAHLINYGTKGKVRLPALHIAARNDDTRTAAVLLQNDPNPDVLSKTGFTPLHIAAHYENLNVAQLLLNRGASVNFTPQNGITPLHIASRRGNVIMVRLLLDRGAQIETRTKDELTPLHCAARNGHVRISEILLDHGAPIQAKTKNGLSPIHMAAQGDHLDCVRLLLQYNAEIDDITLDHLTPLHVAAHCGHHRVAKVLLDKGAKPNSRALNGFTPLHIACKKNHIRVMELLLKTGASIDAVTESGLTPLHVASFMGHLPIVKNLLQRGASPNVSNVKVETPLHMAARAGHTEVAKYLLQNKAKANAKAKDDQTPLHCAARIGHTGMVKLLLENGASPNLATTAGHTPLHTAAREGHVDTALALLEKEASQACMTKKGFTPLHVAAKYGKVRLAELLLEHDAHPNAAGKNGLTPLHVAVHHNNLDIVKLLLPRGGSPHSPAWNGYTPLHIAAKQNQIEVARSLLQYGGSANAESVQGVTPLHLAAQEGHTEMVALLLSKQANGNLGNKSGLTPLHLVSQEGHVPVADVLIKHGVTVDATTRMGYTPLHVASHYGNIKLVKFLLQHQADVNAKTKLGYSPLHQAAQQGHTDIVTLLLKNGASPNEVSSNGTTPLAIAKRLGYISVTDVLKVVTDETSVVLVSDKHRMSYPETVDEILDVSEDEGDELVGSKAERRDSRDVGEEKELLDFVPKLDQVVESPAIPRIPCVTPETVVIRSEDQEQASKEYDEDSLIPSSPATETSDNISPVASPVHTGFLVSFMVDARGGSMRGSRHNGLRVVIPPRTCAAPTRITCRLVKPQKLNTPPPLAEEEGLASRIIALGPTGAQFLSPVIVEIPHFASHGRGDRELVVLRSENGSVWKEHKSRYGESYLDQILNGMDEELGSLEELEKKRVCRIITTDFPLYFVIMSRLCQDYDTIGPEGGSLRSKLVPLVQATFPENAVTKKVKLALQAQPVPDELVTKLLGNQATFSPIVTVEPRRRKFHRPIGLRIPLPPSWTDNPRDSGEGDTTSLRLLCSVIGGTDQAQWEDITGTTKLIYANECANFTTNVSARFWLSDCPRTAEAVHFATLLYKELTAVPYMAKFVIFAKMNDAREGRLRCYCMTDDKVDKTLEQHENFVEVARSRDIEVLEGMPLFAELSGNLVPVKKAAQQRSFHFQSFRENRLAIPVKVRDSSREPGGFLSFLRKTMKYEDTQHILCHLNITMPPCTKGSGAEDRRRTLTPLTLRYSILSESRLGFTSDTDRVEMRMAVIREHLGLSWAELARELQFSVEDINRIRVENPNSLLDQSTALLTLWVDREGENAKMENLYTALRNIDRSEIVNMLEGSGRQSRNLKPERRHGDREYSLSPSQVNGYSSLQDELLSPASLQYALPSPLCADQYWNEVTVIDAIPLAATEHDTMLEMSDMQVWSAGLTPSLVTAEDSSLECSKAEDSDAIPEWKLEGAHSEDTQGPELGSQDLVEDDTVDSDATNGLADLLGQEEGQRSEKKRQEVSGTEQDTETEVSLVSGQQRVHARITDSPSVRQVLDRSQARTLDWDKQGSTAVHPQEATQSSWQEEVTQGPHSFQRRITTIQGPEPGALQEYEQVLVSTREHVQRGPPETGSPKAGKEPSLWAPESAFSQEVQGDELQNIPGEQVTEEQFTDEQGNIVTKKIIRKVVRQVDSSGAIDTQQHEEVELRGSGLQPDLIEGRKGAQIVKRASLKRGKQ
UniProt P33173: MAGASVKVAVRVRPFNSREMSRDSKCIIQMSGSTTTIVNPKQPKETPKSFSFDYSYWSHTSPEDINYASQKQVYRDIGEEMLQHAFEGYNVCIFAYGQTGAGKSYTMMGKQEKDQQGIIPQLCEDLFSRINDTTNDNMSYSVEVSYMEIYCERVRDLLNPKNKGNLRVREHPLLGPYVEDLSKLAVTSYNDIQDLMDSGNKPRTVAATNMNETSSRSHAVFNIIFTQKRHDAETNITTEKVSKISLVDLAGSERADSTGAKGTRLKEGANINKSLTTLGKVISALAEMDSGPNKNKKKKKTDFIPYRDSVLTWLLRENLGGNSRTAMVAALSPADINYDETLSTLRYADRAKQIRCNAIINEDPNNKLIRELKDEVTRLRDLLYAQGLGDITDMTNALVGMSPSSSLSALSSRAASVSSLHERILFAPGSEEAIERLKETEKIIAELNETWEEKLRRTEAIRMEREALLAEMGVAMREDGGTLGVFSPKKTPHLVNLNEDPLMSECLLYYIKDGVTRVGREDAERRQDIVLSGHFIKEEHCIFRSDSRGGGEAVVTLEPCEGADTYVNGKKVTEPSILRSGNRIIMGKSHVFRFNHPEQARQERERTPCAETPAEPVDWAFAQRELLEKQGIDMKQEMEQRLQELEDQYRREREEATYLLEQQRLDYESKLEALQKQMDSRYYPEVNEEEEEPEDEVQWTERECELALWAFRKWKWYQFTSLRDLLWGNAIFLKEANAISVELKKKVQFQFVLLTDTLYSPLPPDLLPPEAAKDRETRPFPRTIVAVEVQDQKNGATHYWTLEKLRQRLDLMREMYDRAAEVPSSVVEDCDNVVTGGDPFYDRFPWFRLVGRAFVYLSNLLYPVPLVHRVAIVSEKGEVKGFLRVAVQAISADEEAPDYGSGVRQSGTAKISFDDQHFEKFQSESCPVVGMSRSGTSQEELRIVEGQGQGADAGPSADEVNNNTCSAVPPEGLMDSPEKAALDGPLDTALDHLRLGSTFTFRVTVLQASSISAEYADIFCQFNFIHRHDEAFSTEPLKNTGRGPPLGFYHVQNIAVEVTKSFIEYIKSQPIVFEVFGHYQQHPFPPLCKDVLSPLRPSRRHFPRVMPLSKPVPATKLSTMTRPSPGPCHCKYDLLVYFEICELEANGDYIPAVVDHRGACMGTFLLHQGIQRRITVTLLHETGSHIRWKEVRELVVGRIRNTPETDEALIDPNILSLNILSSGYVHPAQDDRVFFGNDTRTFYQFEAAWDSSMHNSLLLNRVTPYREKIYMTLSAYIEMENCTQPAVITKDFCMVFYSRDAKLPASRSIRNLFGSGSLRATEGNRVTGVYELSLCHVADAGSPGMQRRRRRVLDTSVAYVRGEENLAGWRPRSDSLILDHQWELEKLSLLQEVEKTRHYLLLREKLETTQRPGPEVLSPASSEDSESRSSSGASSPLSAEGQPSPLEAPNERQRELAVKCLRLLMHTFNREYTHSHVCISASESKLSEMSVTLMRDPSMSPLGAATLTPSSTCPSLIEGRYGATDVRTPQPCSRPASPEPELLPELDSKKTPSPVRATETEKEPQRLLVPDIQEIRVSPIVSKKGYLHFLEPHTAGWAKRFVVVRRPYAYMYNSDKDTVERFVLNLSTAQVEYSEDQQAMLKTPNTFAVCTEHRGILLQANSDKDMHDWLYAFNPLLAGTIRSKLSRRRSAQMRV
UniProt Q8BLK3: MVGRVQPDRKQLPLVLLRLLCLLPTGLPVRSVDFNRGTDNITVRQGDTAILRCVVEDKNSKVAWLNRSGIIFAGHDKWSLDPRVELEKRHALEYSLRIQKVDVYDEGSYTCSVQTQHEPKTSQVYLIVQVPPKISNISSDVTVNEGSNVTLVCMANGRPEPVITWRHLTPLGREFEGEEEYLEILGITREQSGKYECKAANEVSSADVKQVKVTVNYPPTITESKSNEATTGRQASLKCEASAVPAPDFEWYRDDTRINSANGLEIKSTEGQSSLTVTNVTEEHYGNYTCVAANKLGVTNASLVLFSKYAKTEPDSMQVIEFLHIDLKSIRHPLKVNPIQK
UniProt Q80UG2, residues 24-1893: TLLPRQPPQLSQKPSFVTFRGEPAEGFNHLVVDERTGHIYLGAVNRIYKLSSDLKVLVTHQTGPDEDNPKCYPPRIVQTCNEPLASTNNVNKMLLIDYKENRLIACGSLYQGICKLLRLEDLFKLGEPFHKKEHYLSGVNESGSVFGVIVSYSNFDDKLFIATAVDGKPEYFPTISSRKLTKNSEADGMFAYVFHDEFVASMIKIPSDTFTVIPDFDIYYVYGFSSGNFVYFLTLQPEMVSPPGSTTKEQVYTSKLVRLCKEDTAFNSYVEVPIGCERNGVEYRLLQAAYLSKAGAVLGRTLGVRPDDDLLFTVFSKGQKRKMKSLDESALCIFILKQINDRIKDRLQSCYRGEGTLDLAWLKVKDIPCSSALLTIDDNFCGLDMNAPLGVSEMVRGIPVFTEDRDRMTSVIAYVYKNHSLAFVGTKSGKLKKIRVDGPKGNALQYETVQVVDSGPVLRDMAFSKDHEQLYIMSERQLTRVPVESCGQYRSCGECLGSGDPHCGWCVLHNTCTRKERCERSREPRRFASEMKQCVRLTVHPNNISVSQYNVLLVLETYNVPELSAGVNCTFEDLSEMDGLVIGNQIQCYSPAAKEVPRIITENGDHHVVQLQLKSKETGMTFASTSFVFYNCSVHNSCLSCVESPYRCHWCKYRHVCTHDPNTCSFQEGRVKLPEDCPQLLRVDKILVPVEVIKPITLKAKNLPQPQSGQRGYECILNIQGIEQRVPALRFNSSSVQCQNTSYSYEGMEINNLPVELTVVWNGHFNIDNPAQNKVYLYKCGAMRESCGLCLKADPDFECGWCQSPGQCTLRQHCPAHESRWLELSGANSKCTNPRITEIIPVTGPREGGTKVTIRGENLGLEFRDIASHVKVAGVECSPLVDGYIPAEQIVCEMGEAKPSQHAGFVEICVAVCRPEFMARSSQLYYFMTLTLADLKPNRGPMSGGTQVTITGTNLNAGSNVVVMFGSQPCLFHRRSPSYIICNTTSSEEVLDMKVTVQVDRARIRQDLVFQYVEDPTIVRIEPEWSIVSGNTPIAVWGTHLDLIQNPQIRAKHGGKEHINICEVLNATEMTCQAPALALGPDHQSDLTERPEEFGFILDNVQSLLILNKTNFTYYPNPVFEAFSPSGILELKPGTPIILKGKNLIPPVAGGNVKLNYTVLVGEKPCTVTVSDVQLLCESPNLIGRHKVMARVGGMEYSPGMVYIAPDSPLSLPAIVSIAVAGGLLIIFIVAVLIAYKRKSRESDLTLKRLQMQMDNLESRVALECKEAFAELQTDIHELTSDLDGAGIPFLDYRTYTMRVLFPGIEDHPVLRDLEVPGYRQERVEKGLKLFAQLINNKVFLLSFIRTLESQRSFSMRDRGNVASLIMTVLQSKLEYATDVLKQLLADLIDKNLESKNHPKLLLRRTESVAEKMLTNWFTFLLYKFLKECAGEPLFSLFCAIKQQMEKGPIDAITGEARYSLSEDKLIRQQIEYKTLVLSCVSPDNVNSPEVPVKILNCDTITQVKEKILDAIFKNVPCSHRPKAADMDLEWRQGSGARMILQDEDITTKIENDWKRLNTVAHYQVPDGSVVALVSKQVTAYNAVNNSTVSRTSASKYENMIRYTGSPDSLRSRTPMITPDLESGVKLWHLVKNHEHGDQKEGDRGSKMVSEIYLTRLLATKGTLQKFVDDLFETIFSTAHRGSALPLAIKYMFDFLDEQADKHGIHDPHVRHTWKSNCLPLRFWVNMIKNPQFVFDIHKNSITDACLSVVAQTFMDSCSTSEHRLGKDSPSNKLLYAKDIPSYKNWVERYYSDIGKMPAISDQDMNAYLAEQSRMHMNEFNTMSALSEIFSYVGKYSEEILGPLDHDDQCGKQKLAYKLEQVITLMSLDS

Tests used:
[1] = target: Ankyrin-R (mouse (endogenous in mouse brain)) (UniProt Q02357); assay: affinity purification with mass spectrometry; AnkR immunoprecipitations in biological triplicate from whole Ank1 F/F mouse brain lysates; candidates filtered by ≥10 mean PSMs and by reduction in AnkR-KO hindbrain homogenates (differential proteomics)
[2] = target: Ankyrin-R (mouse (endogenous in mouse brain)) (UniProt Q02357); assay: as above; remark: listed apart in the source

Row | Molecule | binding [1] | binding [2]
1 | Itsn1 (from UniProt Q9Z0R4 1-1714) | binds | –
2 | Kif1a (from UniProt P33173 1-1695) | binds | –
3 | Limbic System Associated Membrane Protein (from UniProt Q8BLK3) | binds | –
4 | Myh11 (from UniProt O08638 1-1972) | binds | –
5 | NrCAM (from UniProt Q810U4 30-1256) | binds | –
6 | PlexinA4 (from UniProt Q80UG2 24-1893) (receptor) | binds | –
7 | adhesion G-protein-coupled receptor Gpr158 (receptor, UniProt Q8C419 25-1200) SLDPPGRPDSPRERTPRGKQHGQQLPRASAPDPSIPWSRSTDGTILAQKLAEEVPVDVASYLYTGDFHQLKRANCSGRYELAGLPGKSPSLASSHPSLHGALDTLTHATNFLNMMLQSNKSREQTVQDDLQWYQALVRSLLEGEPSISRAAITFSTESLSTPAPQVFLQATREESRILLQDLSSSAHHLANATLETEWFHGLRRKWRPHLHRRGSNQGPRGLGHSWRRRDGLGGDRSHVKWSPPYLECENGSYKPGWLVTLSAAFYGLQPNLVPEFRGVMKVDISLQKVDIDQCSSDGWFSGTHKCHLNNSECMPIKGLGFVLGAYQCICKAGFYHPRVFSVNNFQRRGPDHHFSGSTKDVSEETHVCLPCREGCPFCADDRPCFVQEDKYLRLAIISFQALCMLLDFVSMLVVYHFRKAKSIRASGLILLETILFGSLLLYFPVVILYFEPSTFRCILLRWARLLGFATVYGTVTLKLHRVLKVFLSRTAQRIPYMTGGRVMRMLAVIVLVVFWFLVGWTSSMCQNLERDILLVGQGQTSDHLTFNMCLIDRWDYMTAVAEFLFLLWGIYLCYAVRTVPSAFHEPRYMAVAVHNELIITAIFHTIRFVLASRLQPDWMLMLYFAHAHLTVTVTIGLLLIPKFSHSSNNPRDDIATEAYEDELDMGRSGSYLNSSINSAWSEHSLDPEDIRDELKKLYAQLEIYKRKKMITNNPHLQKKRCSKKGLGRSIMRRITEIPETVSRQCSKEDKEGTDHSAAKGTGLVRKNPTESSGNTGRPKEESLKNRVFSLKKSHSTYDHVRDQTVESSSLPMESQEEEATENSTLESLSSKKLTQKLKEDSEAESTESVPLVCKSASAHNLSSEKKPGHPRTSMLQKSLSVIASAKEKTLGLAGKTQTLVMEDRAKSQKPKDRETIRKYSNSDNVETIPNSGHMEEPRKPQKSGIMKQQRVSLPTANPDVSSGITQIKDNFDIGEVCPWEVYDLTPGPMPSEPKAQKHVSIAASEVEQNPASFLKEKSYHKSKATEGLYQANHKSIDKTEVCPWEIHSQSLLEDENRLISKTPVLPGRAREENGSQLYTTNMCAGQYEELPHKVVAPKVENENLNQMGDQEKQTSSSVDIIPGSCNSSNNSHQPLTSRAEVCPWEFEPLEQPNAERSVTLPASSALSANKIPGPQK | – | binds

Like-named read-outs stand apart in the source and are kept apart here. No constants are given. Whether binding was seen depends on the method and setting. In cells and extracts the contact can be indirect. Here binding means that the protein was enriched with, or labelled near, the bait; the list need not be complete.
